Experimental data from US20160046678A1 (ZYNGENIA, published 2016).
These are yes or no findings as the source states them, for the method shown. Some entries that bind do so weakly or less than the wild type.

The chains behind the UniProt entries cited, without tags or fusion partners. Residues count along the entry.
UniProt P08887, residues 20-358: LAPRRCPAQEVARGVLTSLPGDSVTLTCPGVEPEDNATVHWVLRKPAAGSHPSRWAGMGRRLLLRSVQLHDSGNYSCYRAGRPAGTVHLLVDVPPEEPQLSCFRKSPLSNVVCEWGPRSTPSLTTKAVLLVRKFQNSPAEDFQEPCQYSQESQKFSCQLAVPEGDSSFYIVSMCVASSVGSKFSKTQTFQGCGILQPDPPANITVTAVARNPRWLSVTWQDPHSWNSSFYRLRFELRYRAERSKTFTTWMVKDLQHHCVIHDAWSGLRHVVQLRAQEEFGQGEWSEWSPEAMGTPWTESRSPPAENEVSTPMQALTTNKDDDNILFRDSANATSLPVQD

biological target: IL6R (UniProt P08887); test: peptide selection, Example 48

binding, binds:
SEFVYCMLDMVFRECHGTA [ILC95]
SELILCALEMVFNECHGAV [ILC96]
SHEDWTCFPYLCKYLLD [ILC176]
SHEDWTCFPYLCKVLLH [ILC170]
SEEEWTCFPYLCTDWVH [ILC172]
SEFIFCDLEMVFRECHGTT [ILC93]
SEEEWTCFPYLCREWAH [ILC179]
SHEEWTCFPYLCKYWLH [ILC169]
SEEEWTCFPYLCSIWLE [ILC165]
SEEEWTCFPYLCTILLQ [ILC173]
SQEEWTCFPYLCSYWLE [ILC166]
SDEEWTCFPYLCSVWVE [ILC174]
SDLIWCELDMVFRECHGAA [ILC99]
SDLILCNLEMVFKECHGVI [ILC103]
SDEEWTCFPYLCSQWVE [ILC178]
SQEEWTCFPYLCSFWSE [ILC167]
SHEEWTCFPYLCTFWAE [ILC164]
SEIVLCEWAMVLAECHGAA [ILC108]
SSLILCDLEMVFKECHGVL [ILC106]
SQEEWTCFPYLCREWVE [ILC177]
SDLVLCEWDMVVRECHGVF [ILC97]
SHEEWTCFPYLCENWLH [ILC171]
SEEEWTCFPYLCSYLLH [ILC175]
SRCDRVLGTHINL [ILC144]
SSFVFCDLEMVFRECHGVF [ILC102]
